Our source for the Potency values is PubChem BioAssay AID624202 (National Center for Advancing Translational Sciences (NCATS), 2012).

Only a part is listed here, and it is no random draw. Calls of active or inactive are those of the source. Calls come from the whole dose curve; as a rule, active = well fitted activation curve with a large enough effect; inconclusive = small, poorly fitted or top-dose-only effect; inactive = no such curve, though single readings can be large or run the other way.
Potency is the fitted concentration of half-maximal effect.

The nature of this assay: qHTS Assay to Identify Small Molecule Activators of BRCA1 Expression. Note: nearly all actives have a fitted effect of over 80% in size. The following applies: MCF7-BRCA1-FFLuc reporter, luminescence, 48 h. From the text:
Functionally, BRCA1 has been implicated in a wide array of cellular activities, including DNA damage repair, cell-cycle checkpoint control, growth inhibition, apoptosis, transcriptional regulation, chromatin remodeling, protein ubiquitylation, and mammary stem cell self-renewal and differentiation. Reduction in BRCA1 levels is associated with an increase in tumor growth and resistance to anti-estrogenic agents, such as tamoxifen, while an increase in BRCA1 expression leads to cell growth arrest and apoptosis. […] The frequent loss of BRCA1 expression in invasive breast cancers in the absence of somatic mutation has been attributed to numerous mechanisms, including hypermethylation of the BRCA1 promoter, exaggerated ubiquitylation of BRCA1 protein, and improper intracellular localization. […]
5microl of MCF7-BRCA1-FFLuc cell suspension (400 cells/microl in phenol-red free MEM) are dispensed into Greiner white solid bottom 1536-well assay plates, yielding a final well density of 2000 cells/well. […] The NCGC in-house luciferase substrate reagent, Buglite, is then added (2.5microl) and plates incubated for 15 minutes, before being transferred to a ViewLux high-throughput CCD imager (PerkinElmer) wherein single end-point measurements of luminescence are acquired using a clear filter. […]
With `Cc1cc(=O)oc2cc(OCc3ccccc3)ccc12`, the Potency is active: 3.16 µM.
